Data: article PMC11191282
These are yes or no findings as the source states them, for the method shown. In cells and extracts the contact can be indirect. Some binding calls cover weakened binding; strength is not graded here.

Protein sequences, listed by entry. Tags and fused reporters are not part of them. Residues count along the entry.
UniProt P52799, residues 28-333: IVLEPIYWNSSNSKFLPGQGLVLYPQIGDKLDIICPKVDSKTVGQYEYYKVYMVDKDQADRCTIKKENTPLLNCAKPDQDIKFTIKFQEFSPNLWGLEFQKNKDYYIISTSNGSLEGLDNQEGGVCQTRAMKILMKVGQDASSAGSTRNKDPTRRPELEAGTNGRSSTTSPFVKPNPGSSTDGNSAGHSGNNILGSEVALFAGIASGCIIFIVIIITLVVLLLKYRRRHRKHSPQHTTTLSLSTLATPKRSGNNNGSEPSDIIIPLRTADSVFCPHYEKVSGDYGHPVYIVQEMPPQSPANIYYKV

T1: VAV2 (UniProt P52735)
T1 sequence: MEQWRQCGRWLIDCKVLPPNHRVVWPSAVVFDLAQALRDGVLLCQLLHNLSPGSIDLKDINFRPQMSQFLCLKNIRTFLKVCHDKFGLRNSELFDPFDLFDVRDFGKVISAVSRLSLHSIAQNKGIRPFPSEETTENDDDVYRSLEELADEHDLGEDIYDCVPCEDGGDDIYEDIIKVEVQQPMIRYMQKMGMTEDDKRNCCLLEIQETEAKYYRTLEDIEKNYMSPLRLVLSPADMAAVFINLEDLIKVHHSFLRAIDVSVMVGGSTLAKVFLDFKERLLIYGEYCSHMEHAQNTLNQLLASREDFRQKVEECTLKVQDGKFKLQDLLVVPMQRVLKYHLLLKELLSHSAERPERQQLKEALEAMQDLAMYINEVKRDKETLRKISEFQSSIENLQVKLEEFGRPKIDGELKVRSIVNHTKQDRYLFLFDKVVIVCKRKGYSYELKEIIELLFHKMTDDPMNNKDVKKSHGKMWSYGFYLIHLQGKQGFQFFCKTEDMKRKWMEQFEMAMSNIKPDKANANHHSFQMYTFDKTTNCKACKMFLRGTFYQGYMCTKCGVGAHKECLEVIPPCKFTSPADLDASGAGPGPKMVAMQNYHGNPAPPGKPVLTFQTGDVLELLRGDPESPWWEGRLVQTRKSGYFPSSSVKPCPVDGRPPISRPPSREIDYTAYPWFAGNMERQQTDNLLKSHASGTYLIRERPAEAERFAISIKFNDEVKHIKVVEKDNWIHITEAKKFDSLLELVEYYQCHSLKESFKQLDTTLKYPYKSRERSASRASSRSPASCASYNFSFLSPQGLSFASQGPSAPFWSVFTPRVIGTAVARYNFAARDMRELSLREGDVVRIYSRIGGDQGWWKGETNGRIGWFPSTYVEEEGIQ


Assays:
[1] = molecular target: T1, VAV2; experiment: co-IP; lysate of HUVECs transfected with the EFNB2 and VAV2 overexpression plasmids; 500 µL supernatant with 8 µg IP antibody (EphrinB2 or VAV2) or control IgG at 4 °C for 12 h; magnetic beads 2 h at 4 °C; four washes with lysis buffer; Western blot
[2] = molecular target: EphrinB2 (UniProt P52799); experiment: as above

Row | binding [1] | binding [2] | Molecule
1 | binds |  | EphrinB2 (from UniProt P52799 28-333)
2 |  | binds | VAV2 (protein, UniProt P52735 1-878) MEQWRQCGRWLIDCKVLPPNHRVVWPSAVVFDLAQALRDGVLLCQLLHNLSPGSIDLKDINFRPQMSQFLCLKNIRTFLKVCHDKFGLRNSELFDPFDLFDVRDFGKVISAVSRLSLHSIAQNKGIRPFPSEETTENDDDVYRSLEELADEHDLGEDIYDCVPCEDGGDDIYEDIIKVEVQQPMIRYMQKMGMTEDDKRNCCLLEIQETEAKYYRTLEDIEKNYMSPLRLVLSPADMAAVFINLEDLIKVHHSFLRAIDVSVMVGGSTLAKVFLDFKERLLIYGEYCSHMEHAQNTLNQLLASREDFRQKVEECTLKVQDGKFKLQDLLVVPMQRVLKYHLLLKELLSHSAERPERQQLKEALEAMQDLAMYINEVKRDKETLRKISEFQSSIENLQVKLEEFGRPKIDGELKVRSIVNHTKQDRYLFLFDKVVIVCKRKGYSYELKEIIELLFHKMTDDPMNNKDVKKSHGKMWSYGFYLIHLQGKQGFQFFCKTEDMKRKWMEQFEMAMSNIKPDKANANHHSFQMYTFDKTTNCKACKMFLRGTFYQGYMCTKCGVGAHKECLEVIPPCKFTSPADLDASGAGPGPKMVAMQNYHGNPAPPGKPVLTFQTGDVLELLRGDPESPWWEGRLVQTRKSGYFPSSSVKPCPVDGRPPISRPPSREIDYTAYPWFAGNMERQQTDNLLKSHASGTYLIRERPAEAERFAISIKFNDEVKHIKVVEKDNWIHITEAKKFDSLLELVEYYQCHSLKESFKQLDTTLKYPYKSRERSASRASSRSPASCASYNFSFLSPQGLSFASQGPSAPFWSVFTPRVIGTAVARYNFAARDMRELSLREGDVVRIYSRIGGDQGWWKGETNGRIGWFPSTYVEEEGIQ
